Measurements from patent US20110256557A1, “IDENTIFYING PARATHYROID HORMONE AGONISTS AND ANTAGONISTS” (DISCOVERYBIOMED, INC., priority 2008, published 2011).
Results are given in words; binding and its absence hold for the method and conditions named. For part of these data: In cells and extracts the contact can be indirect. Some entries that bind do so weakly or less than the wild type.

Amino acid sequences for entries named in this document (tags omitted). A change or cut given only in a name is not applied to a line headed by its entry. Chains listed by the source or under a name are the forms on record and can include a tag or linker. Residues count along the entry.
UniProt Q03431, residues 27-593: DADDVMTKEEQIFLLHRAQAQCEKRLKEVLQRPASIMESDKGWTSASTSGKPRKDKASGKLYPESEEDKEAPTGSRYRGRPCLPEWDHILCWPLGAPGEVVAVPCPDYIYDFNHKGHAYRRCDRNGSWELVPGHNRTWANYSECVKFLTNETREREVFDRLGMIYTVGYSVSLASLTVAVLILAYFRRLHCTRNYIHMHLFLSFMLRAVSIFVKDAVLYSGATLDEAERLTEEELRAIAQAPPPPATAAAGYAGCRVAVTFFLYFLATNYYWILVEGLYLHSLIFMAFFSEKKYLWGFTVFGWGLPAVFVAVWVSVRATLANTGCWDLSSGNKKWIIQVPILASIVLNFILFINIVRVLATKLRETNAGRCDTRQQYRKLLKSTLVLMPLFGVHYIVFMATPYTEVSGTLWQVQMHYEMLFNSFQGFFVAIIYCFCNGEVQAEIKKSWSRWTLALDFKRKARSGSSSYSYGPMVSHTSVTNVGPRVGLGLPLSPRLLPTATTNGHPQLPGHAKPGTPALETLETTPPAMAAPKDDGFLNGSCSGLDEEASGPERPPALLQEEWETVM
UniProt P25961, residues 27-591: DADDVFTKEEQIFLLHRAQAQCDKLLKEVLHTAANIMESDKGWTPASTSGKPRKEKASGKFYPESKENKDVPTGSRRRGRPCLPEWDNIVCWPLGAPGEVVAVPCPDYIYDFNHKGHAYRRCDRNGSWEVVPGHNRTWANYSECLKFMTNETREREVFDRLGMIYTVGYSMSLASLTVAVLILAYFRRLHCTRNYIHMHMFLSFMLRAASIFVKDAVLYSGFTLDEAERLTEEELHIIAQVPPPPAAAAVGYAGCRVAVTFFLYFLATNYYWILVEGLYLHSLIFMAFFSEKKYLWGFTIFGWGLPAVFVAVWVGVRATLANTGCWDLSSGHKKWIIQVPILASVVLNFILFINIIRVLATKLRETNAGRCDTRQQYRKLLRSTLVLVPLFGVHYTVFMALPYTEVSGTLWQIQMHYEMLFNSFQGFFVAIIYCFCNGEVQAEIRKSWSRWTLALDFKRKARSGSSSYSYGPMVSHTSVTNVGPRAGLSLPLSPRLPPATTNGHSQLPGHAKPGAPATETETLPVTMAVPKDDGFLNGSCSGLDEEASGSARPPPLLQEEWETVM
UniProt O75197, residues 32-1615: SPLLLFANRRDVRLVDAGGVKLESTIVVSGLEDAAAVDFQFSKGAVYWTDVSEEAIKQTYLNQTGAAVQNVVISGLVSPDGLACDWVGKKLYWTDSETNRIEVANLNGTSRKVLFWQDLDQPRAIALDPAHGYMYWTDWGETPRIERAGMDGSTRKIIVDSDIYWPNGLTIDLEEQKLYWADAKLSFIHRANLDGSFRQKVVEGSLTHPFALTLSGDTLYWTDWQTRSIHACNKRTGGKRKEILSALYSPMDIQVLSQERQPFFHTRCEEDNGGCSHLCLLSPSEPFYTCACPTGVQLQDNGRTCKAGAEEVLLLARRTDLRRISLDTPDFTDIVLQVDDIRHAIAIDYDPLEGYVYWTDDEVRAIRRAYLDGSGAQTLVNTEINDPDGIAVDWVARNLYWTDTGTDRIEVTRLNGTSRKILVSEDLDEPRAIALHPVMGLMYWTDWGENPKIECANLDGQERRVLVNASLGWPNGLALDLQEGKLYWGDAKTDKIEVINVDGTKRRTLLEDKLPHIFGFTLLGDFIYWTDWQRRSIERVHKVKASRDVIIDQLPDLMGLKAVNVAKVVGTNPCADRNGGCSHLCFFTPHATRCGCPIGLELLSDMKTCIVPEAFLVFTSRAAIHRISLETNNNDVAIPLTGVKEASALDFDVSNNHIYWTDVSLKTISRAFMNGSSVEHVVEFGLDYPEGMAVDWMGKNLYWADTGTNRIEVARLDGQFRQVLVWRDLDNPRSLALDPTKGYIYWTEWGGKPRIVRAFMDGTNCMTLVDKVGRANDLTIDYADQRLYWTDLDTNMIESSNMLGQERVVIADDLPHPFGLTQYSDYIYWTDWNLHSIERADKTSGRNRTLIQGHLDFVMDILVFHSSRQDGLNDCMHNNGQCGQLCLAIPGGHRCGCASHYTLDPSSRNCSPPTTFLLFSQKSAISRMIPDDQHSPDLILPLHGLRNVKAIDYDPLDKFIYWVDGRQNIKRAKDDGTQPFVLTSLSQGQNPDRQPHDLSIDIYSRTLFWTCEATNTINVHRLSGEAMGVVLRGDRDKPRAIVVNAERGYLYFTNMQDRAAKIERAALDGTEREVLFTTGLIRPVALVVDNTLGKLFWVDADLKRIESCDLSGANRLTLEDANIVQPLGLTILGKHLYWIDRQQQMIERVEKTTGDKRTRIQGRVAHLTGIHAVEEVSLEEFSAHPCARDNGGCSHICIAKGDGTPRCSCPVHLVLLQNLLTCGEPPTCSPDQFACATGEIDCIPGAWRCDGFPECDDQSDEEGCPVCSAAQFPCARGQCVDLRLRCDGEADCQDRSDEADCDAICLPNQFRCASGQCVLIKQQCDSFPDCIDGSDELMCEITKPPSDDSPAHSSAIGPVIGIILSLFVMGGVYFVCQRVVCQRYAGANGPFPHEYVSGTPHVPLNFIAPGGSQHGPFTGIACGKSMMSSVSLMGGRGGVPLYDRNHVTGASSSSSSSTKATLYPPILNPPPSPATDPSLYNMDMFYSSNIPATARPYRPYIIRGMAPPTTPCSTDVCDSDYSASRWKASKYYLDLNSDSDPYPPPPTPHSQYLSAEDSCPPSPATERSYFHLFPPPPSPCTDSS
endogenous LRP6 in UMR-106 cells (A0A0G2K0H3, form named): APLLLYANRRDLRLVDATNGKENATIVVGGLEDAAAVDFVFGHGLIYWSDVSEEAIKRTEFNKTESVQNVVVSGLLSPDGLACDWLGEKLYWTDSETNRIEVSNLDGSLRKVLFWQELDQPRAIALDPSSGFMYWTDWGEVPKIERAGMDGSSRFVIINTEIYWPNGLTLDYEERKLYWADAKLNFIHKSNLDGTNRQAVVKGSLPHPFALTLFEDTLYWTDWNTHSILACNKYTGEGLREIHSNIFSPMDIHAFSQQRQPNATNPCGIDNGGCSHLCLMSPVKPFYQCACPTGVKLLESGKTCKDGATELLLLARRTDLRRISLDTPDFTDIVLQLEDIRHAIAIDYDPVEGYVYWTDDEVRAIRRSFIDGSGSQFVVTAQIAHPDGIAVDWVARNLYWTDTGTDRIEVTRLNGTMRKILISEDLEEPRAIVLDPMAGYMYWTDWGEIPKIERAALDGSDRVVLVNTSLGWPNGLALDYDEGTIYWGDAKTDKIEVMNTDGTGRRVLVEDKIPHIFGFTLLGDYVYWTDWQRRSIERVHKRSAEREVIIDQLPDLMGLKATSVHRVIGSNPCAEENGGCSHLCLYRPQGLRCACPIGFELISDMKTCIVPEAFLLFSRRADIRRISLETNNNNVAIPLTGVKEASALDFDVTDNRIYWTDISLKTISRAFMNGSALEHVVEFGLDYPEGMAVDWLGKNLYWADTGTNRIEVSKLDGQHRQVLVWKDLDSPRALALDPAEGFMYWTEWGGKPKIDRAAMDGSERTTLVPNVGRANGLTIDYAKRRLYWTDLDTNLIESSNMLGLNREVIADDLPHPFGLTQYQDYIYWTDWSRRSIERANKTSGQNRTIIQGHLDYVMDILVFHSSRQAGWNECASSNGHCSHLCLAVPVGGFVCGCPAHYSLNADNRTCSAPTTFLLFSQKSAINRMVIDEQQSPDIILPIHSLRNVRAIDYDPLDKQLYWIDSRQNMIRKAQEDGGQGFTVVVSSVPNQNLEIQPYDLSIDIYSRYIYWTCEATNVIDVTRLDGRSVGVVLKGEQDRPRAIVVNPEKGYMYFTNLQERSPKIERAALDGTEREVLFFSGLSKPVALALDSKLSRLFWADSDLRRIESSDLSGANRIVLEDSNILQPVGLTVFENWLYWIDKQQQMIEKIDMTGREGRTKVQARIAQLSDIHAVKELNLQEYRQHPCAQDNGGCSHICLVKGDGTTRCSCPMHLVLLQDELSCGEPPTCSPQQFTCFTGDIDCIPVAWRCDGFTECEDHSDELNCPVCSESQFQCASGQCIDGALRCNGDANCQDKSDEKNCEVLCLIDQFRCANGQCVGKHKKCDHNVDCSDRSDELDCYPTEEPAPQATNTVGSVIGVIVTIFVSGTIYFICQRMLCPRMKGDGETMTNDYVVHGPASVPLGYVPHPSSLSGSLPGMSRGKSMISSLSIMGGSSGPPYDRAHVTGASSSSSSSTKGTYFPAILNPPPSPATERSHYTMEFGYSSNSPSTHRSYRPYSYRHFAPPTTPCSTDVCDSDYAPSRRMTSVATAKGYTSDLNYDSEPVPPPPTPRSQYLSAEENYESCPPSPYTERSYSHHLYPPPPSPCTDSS

Assays:
[1] = molecular target: PTH1R tagged with HA (exogenous) (UniProt Q03431); experiment: co-IP, Western blot, HEK293 cells
[2] = molecular target: PTH1R tagged with HA (exogenous) (UniProt Q03431); experiment: co-IP from cells co-expressing PTH1R and LRP6N+T
[3] = molecular target: endogenous PTH1R in UMR-106 cells (rat) (UniProt P25961); experiment: co-IP with antibodies to LRP6 from lysates of PTH-treated UMR-106 cells
[4] = molecular target: endogenous PTH1R in UMR-106 cells (rat) (UniProt P25961); experiment: co-IP, Western blot, UMR-106 cells
[5] = molecular target: PTH1R tagged with HA (exogenous) (UniProt Q03431); experiment: immunofluorescence colocalization on HA-PTH1R-transfected cells

human LRP5 tagged with HA (exogenous) (from UniProt O75197 32-1615) (receptor)
binding [1]: binds

LRP6N+T (LRP6 N-terminal plus the transmembrane domain) tagged with VSVG (from UniProt O75581 20-1393) (receptor)
binding [1]: binds
binding [2]: binds

endogenous LRP6 in UMR-106 cells (from UniProt A0A0G2K0H3 20-1611) (receptor)
binding [3]: binds
binding [4]: binds

B1: LRP6N-IgG: LRP6 extracellular domain fused with IgG (protein)
chain: APLLLYANRRDLRLVDATNGKENATIVVGGLEDAAAVDFVFSHGLIYWSDVSEEAIKRTEFNKTESVQNVVVSGLLSPDGLACDWLGEKLYWTDSETNRIEVSNLDGSLRKVLFWQELDQPRAIALDPSSGFMYWTDWGEVPKIERAGMDGSSRFIIINSEIYWPNGLTLDYEEQKLYWADAKLNFIHKSNLDGTNRQAVVKGSLPHPFALTLFEDILYWTDWSTHSILACNKYTGEGLREIHSDIFSPMDIHAFSQQRQPNATNPCGIDNGGCSHLCLMSPVKPFYQCACPTGVKLLENGKTCKDGATELLLLARRTDLRRISLDTPDFTDIVLQLEDIRHAIAIDYDPVEGYIYWTDDEVRAIRRSFIDGSGSQFVVTAQIAHPDGIAVDWVARNLYWTDTGTDRIEVTRLNGTMRKILISEDLEEPRAIVLDPMVGYMYWTDWGEIPKIERAALDGSDRVVLVNTSLGWPNGLALDYDEGKIYWGDAKTDKIEVMNTDGTGRRVLVEDKIPHIFGFTLLGDYVYWTDWQRRSIERVHKRSAEREVIIDQLPDLMGLKATNVHRVIGSNPCAEENGGCSHLCLYRPQGLRCACPIGFELISDMKTCIVPEAFLLFSRRADIRRISLETNNNNVAIPLTGVKEASALDFDVTDNRIYWTDISLKTISRAFMNGSALEHVVEFGLDYPEGMAVDWLGKNLYWADTGTNRIEVSKLDGQHRQVLVWKDLDSPRALALDPAEGFMYWTEWGGKPKIDRAAMDGSERTTLVPNVGRANGLTIDYAKRRLYWTDLDTNLIESSNMLGLNREVIADDLPHPFGLTQYQDYIYWTDWSRRSIERANKTSGQNRTIIQGHLDYVMDILVFHSSRQSGWNECASSNGHCSHLCLAVPVGGFVCGCPAHYSLNADNRTCSAPTTFLLFSQKSAINRMVIDEQQSPDIILPIHSLRNVRAIDYDPLDKQLYWIDSRQNMIRKAQEDGSQGFTVVVSSVPSQNLEIQPYDLSIDIYSRYIYWTCEATNVINVTRLDGRSVGVVLKGEQDRPRAVVVNPEKGYMYFTNLQERSPKIERAALDGTEREVLFFSGLSKPIALALDSRLGKLFWADSDLRRIESSDLSGANRIVLEDSNILQPVGLTVFENWLYWIDKQQQMIEKIDMTGREGRTKVQARIAQLSDIHAVKELNLQEYRQHPCAQDNGGCSHICLVKGDGTTRCSCPMHLVLLQDELSCGEPPTCSPQQFTCFTGEIDCIPVAWRCDGFTECEDHSDELNCPVCSESQFQCASGQCIDGALRCNGDANCQDKSDEKNCEVLCLIDQFRCANGQCIGKHKKCDHNVDCSDKSDELDCYPTEEPAPQA
modifications: left off: a dimerising Fc or GST
binding [5]: binds
